Publication PMC12012533, “Structural basis for immune cell binding of Fusobacterium nucleatum via the trimeric autotransporter adhesin CbpF” (Proceedings of the National Academy of Sciences of the …, 2025)
These are yes or no findings as the source states them, for the method shown. Some results given as binding are weak or reduced against the parent protein; the word gives no strength.

Protein sequences, listed by entry. Tags and fused reporters are not part of them. Residues count along the entry.
UniProt P13688, residues 35-526: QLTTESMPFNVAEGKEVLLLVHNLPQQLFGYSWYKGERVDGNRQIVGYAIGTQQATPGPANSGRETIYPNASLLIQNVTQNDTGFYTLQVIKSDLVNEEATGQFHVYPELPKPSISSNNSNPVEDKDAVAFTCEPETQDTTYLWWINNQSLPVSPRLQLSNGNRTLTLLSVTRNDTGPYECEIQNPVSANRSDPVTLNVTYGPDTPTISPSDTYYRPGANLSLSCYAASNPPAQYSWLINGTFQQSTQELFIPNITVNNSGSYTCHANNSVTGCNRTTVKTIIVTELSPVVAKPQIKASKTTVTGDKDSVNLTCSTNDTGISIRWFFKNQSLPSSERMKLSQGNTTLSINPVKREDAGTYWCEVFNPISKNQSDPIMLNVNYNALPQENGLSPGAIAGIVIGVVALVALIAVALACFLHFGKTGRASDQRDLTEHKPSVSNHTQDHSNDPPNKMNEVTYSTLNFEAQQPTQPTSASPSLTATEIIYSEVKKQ
UniProt Q8RIS0, residues 24-479: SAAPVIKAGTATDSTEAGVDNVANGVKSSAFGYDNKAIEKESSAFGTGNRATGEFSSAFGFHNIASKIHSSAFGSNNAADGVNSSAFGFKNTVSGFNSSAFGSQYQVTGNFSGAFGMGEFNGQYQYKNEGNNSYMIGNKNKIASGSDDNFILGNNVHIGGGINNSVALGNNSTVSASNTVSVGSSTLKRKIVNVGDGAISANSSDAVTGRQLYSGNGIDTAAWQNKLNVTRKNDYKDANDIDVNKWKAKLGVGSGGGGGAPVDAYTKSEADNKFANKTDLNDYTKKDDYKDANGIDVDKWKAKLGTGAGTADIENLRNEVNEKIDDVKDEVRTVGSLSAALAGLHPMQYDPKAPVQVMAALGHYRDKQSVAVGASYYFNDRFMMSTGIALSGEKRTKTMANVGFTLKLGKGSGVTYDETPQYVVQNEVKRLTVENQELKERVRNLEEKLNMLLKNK

Assays:
[1] = molecular target: CEACAM1-eGFP fusion protein on transfected HEK293T cells (human) (UniProt P13688); experiment: confocal fluorescence microscopy of labelled protein on cells; 1 µM AlexaFluor 647-labelled CbpF nanodiscs or empty nanodiscs on HEK293T cells transfected with CEACAM1-GFP, 2 h at 37 °C; cell boundaries stained with CellBrite Fix 555; only the binder purified
[2] = molecular target: CEACAM1-eGFP fusion protein on transfected HEK293T cells (human) (UniProt P13688); experiment: competition of cell binding (confocal fluorescence microscopy); labelled CbpF nanodiscs on CEACAM1-GFP transfected HEK293T cells, 1 h at 37 °C, without or after preincubation with CEACAM1-ECD; only the binder purified

“nanodisc-embedded CbpF labelled with AlexaFluor 647 (from UniProt Q8RIS0 24-479)” was tested, and the binding [1] was “binds”.
“CEACAM binding protein of Fusobacterium (CbpF), F. nucleatum ATCC25586, wild type (from UniProt Q8RIS0 24-479)” was tested, and the binding [2] was “binds”.
